For 11 targets, log2 fold change results are on record in the supplement of paper PMC10849652.

By UniProt entry, the sequences of proteins in these tests, tags left out. Where a name states a change or a piece, a line headed by the entry shows the natural chain unless it says otherwise.
UniProt Q9Y5Q0: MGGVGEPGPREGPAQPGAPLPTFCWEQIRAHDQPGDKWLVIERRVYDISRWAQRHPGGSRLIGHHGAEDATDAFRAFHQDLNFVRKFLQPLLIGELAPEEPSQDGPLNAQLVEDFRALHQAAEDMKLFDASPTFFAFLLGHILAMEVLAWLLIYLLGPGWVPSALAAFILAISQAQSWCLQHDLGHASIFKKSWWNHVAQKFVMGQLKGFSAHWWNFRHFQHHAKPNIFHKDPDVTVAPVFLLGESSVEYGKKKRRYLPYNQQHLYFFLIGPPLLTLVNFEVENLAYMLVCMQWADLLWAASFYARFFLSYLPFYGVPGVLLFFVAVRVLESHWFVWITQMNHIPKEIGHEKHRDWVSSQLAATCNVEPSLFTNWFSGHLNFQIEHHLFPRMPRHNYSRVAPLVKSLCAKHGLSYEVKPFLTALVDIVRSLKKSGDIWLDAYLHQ
UniProt Q9NWS6: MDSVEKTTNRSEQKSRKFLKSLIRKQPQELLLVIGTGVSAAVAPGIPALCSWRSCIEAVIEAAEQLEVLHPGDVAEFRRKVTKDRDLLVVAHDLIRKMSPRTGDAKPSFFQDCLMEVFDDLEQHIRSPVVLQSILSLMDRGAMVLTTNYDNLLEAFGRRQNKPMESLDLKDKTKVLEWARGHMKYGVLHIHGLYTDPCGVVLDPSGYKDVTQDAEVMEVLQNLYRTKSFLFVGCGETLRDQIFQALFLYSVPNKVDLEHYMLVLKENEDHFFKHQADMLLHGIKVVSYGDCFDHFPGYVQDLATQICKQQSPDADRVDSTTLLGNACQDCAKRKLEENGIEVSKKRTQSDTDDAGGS
UniProt Q03468, whole entry, looked up: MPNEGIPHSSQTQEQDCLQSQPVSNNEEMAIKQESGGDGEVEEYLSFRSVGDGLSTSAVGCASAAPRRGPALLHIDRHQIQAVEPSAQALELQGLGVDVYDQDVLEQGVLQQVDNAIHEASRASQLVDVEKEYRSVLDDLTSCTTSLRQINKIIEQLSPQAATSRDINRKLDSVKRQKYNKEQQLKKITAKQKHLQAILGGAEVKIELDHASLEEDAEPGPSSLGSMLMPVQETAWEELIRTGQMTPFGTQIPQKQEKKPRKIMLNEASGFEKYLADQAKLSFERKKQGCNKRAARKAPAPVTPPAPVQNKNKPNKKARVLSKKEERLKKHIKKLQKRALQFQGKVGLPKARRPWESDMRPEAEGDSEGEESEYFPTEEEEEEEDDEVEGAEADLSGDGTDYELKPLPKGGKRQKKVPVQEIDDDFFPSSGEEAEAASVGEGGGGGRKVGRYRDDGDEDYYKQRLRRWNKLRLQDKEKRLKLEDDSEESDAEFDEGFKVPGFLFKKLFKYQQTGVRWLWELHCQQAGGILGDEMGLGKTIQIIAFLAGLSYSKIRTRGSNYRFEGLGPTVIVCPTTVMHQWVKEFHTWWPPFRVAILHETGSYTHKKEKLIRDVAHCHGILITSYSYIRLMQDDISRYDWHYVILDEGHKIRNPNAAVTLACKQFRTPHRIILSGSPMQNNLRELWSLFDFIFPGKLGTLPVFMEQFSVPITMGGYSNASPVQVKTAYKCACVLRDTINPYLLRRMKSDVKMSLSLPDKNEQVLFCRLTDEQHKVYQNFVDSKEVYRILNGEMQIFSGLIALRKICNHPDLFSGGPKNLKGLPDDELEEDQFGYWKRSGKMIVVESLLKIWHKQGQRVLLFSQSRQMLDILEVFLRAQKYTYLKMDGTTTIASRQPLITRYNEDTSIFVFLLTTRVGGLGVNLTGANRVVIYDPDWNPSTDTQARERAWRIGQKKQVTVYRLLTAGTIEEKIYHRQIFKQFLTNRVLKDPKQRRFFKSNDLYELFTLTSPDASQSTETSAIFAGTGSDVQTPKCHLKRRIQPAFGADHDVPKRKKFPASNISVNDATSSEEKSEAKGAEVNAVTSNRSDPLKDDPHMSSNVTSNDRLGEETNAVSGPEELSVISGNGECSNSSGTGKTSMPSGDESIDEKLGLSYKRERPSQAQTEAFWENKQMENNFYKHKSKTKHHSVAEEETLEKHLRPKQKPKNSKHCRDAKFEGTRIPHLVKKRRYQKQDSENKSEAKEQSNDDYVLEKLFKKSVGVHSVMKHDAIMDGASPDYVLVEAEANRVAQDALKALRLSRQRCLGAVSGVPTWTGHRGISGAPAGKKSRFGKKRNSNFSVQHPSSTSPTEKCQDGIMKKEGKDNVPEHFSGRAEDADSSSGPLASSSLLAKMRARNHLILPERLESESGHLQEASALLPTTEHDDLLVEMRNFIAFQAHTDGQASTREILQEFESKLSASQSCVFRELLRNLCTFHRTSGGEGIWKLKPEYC
UniProt Q15910, whole entry, looked up: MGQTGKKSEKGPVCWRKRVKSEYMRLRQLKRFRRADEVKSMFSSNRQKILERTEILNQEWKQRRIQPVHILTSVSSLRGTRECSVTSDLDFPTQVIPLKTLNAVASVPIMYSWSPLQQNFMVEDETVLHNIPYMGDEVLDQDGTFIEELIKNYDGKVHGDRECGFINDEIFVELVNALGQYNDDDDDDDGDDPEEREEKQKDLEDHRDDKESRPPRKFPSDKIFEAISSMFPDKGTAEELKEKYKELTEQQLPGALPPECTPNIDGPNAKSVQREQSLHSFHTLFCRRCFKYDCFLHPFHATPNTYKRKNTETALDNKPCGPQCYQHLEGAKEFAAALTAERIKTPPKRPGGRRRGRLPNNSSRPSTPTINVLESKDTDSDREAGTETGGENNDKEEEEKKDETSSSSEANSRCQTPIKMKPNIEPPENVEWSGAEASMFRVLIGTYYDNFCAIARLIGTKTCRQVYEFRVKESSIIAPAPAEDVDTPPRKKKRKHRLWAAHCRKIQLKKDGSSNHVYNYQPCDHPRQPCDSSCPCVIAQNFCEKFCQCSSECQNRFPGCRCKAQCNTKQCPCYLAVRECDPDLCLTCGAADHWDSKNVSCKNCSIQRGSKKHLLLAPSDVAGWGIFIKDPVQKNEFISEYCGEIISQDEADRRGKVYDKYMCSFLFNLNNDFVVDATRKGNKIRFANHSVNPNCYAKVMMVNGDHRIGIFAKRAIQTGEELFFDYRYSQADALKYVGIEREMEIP
UniProt Q8TBP5: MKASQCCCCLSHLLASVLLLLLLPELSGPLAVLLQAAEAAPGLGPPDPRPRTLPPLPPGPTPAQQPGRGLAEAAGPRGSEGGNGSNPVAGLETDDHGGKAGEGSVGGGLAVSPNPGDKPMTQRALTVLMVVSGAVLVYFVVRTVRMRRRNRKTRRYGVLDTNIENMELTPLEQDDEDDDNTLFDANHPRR
UniProt Q92817: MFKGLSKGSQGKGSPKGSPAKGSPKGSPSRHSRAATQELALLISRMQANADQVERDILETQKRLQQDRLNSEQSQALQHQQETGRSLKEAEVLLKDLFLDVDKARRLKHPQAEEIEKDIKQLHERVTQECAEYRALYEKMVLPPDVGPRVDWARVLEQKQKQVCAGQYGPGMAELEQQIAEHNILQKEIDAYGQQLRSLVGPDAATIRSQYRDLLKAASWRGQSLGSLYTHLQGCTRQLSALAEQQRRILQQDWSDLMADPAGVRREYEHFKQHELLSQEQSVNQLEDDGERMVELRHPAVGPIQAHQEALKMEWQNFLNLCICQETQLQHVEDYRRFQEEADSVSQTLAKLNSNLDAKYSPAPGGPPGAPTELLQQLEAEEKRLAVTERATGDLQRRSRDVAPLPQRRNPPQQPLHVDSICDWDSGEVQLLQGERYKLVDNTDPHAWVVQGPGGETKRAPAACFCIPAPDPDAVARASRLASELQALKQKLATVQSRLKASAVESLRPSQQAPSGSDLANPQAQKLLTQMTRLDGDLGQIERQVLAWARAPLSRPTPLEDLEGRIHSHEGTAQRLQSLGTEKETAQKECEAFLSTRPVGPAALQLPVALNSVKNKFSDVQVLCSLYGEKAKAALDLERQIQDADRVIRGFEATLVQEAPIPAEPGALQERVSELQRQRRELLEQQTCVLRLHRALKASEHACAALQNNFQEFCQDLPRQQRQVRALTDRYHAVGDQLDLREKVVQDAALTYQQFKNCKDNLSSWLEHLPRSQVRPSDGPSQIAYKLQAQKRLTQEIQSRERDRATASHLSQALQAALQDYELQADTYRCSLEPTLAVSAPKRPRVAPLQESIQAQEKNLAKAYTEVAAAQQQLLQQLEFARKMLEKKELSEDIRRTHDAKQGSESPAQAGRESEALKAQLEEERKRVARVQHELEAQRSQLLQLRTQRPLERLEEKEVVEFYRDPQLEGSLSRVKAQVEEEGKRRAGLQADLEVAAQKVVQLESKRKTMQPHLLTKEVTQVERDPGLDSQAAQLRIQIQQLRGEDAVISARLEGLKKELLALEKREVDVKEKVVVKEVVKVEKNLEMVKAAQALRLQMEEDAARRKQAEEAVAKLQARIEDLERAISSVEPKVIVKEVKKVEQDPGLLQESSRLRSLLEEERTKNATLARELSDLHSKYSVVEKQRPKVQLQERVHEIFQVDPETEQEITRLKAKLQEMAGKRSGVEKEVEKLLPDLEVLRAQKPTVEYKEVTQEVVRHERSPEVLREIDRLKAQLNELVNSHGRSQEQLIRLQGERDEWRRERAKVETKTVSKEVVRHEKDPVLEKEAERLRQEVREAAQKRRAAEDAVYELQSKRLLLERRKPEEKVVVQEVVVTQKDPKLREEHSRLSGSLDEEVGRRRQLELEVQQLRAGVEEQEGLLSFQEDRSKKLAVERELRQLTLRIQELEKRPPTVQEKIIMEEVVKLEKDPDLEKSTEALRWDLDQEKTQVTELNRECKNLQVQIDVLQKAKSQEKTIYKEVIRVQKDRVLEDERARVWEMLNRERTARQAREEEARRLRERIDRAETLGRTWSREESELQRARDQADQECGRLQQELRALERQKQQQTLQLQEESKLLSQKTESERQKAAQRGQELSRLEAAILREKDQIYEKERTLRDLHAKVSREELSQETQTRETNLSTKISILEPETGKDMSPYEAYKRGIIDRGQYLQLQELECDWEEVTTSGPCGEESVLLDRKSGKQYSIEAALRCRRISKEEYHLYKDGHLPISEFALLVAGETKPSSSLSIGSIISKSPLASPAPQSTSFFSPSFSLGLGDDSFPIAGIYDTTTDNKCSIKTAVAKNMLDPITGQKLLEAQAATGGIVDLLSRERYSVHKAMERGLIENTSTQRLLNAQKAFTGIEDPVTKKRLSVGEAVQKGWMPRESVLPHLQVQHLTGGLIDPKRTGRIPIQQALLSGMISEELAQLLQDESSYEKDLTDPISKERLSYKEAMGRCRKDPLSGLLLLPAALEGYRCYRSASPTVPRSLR
UniProt Q8IV48: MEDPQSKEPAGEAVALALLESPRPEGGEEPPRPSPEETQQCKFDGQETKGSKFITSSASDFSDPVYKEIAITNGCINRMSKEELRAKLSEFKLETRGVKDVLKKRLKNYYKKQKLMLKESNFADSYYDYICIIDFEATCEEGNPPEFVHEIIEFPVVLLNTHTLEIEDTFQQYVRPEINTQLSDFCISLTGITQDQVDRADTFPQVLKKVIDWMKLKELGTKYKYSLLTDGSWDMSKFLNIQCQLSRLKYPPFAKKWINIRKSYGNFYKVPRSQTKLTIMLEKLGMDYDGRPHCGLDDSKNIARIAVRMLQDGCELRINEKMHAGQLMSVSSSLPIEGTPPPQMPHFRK
UniProt Q9NVH0: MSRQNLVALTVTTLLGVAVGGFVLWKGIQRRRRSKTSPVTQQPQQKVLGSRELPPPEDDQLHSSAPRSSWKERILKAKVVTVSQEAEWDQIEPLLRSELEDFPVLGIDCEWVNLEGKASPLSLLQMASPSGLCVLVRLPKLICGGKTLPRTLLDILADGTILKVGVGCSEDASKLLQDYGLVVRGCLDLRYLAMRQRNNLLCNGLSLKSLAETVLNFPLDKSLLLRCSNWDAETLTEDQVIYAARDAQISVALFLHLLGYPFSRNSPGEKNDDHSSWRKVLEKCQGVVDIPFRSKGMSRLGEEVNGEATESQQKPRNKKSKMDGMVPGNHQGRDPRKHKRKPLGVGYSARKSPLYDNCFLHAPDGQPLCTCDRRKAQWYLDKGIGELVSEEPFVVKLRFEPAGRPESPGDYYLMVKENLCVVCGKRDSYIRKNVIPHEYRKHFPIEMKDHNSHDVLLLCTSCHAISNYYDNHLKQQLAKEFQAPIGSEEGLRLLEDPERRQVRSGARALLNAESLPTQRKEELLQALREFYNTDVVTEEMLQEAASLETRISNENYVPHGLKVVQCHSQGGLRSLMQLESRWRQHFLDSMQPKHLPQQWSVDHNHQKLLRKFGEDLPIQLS
UniProt P84090, whole entry, looked up: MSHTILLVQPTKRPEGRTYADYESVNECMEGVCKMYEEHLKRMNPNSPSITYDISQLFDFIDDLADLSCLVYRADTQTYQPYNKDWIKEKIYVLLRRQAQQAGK

Some of the results follow.

What all share (test): log2 fold change, soluble protein after heating vs DMSO (PISA); higher = thermal stabilisation; K562 cells, 10 uM, 30 min; active = over 0.2 and 3.5 SD of the protein, either way, in both replicates (recomputed)
Compound in test [1]: COC1=CC=C(C=C1)CN2C=CC3=C2C=C(C=C3)C(=O)NO
The method in brief:
(§1)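 Values are thermal stability changes relative to control samples and are taken from duplicates. They are stated as log2 fold changes. Before quantification by TMTpro 16plex LC-MS/MS with equalised channel sums, K562 cells at 2×10^6 cells/mL were treated with 10 μM compound for 30 min, heated in aliquots for 3 min across 48°C-58°C, pooled, extracted in PBS with 0.5% NP-40 at 4°C, and centrifuged at 21,000xg for 90 min to give the soluble supernatant.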

Compound in test [2]: CON(C)C(=O)N1N=C(c2cc(F)ccc2F)S[C@@]1(CCCN)c1ccccc1 [filanesib]
The procedure, abridged:
as §1

Compound in test [3]: CO[C@H]1C[C@@H]2CC[C@@H](C)[C@@](O)(O2)C(=O)C(=O)N2CCCC[C@H]2C(=O)O[C@H]([C@H](C)C[C@@H]2CC[C@H](n3cnnn3)[C@H](OC)C2)CC(=O)[C@H](C)/C=C(\C)[C@@H](O)[C@@H](OC)C(=O)[C@H](C)C[C@H](C)/C=C/C=C/C=C/1C [zotarolimus]
The procedure, abridged:
as §1

Compound in test [4]: COc1cc(C(=O)O)ccc1NC(=O)[C@@H]1N[C@@H](CC(C)(C)C)[C@](C#N)(c2ccc(Cl)cc2F)[C@H]1c1cccc(Cl)c1F [idasanutlin]
The method in brief: as §1

Compound in test [5]: COc1cc(Nc2ncc3c(n2)-c2ccc(Cl)cc2C(c2c(F)cccc2OC)=NC3)ccc1C(=O)O [alisertib]
The method in brief:
as §1

Compound in test [6]: COc1cc2nc(-c3cc(F)ccc3O)nc(N[C@@H]3CNC[C@H]3C(C)(C)O)c2cc1OC
The method in brief: as §1

Compound in test [7]: COc1cc2ncnc(Nc3ccc(F)c(Cl)c3)c2cc1OCCCN1CCOCC1 [gefitinib]
The method in brief:
as §1

Compound in test [8]: COc1cccc2cc(-c3nc([C@H]4CC[C@H](C(=O)O)CC4)n4ncnc(N)c34)[nH]c12
The method in brief:
as §1

Compound in test [9]: CS(=O)(=O)CCNCc1ccc(-c2ccc3ncnc(Nc4ccc(OCc5cccc(F)c5)c(Cl)c4)c3c2)o1 [lapatinib]
The procedure, abridged: as §1

Compound in test [10]: CS(=O)(=O)N1CCN(Cc2cc3nc(-c4cccc5[nH]ncc45)nc(N4CCOCC4)c3s2)CC1 [pictilisib]
The method in brief: as §1

Compound in test [11]: CS(=O)(=O)c1ccc(-c2cnc(N)c(C(=O)Nc3ccccc3)n2)cc1
The procedure, abridged:
as §1

Compound in test [12]: C[C@@H](Oc1cc(-c2cnn(C3CCNCC3)c2)cnc1N)c1c(Cl)ccc(F)c1Cl [crizotinib]
The procedure, abridged: as §1

Compound in test [13]: C[C@@H]1COCCN1C2=NC(=NC(=C2)C3(CC3)S(=O)(=O)C)C4=C5C=CNC5=CC=C4
The procedure, abridged:
as §1

Compound in test [14]: C[C@H](C1=CC=C(C=C1)C(=O)NC2=C3C=CNC3=NC=C2)N
The procedure, abridged:
as §1

Compound in test [15]: Cc1cc(Nc2cc(CN3CCOCC3)c3nc(C)c(Cc4ccc(Cl)cc4F)n3n2)n[nH]1 [gandotinib]
The method in brief: as §1

Compound in test [16]: Cc1cc(SCc2sc(-c3ccc(C(F)(F)F)cc3)nc2C)ccc1OCC(=O)O
The procedure, abridged: as §1

Compound in test [17]: Cc1ccc(-n2nc(C(C)(C)C)cc2NC(=O)Nc2ccc(OCCN3CCOCC3)c3ccccc23)cc1 [doramapimod]
The method in brief:
as §1

Compound in test [18]: Cc1ccc(C(=O)N(CCCN)[C@@H](c2nc3cc(Cl)ccc3c(=O)n2Cc2ccccc2)C(C)C)cc1 [ispinesib]
The procedure, abridged: as §1

Compound in test [19]: Cc1cc(Nc2cc(N3CCN(C)CC3)nc(Sc3ccc(NC(=O)C4CC4)cc3)n2)n[nH]1 [tozasertib]
The procedure, abridged: as §1

Compound in test [20]: C[C@H](Nc1ncnc2nc[nH]c12)c1cc2cccc(Cl)c2c(=O)n1-c1ccccc1 [duvelisib]
The procedure, abridged:
as §1

FADS3 (UniProt Q9Y5Q0): the log2 fold change in test [1] was inactive: -0.067; in test [2] it was inactive: -0.151; in test [3], inactive: -0.062; in test [4] it was inactive: 0.007; in test [5] it was inactive: 0.005; in [6], inactive: -0.036. Further, the log2 fold change in test [7] was inactive: 0.04; in test [8] it was inactive: 0.168; in test [9], inactive: 0.097; in [10], inactive: 0.168; in test [11] it was inactive: 0.042; in test [12], inactive: -0.237. Moreover, the log2 fold change is inactive: 0.198 in [13]; inactive: 0.055 in test [14]; inactive: -0.058 in [15]; inactive: 0.073 in test [16]; inactive: -0.013 in test [17]; active: -0.311 in [18].
For FAM118A (UniProt Q9NWS6), the log2 fold change is inactive: 0.213 in test [1]; inactive: -0.15 in test [2]; inactive: 0.032 in test [3]; inactive: -0.323 in test [4]; inactive: 0.383 in test [5]; inactive: 0.023 in test [6]. Also, the log2 fold change in test [7] was inactive: 0.022; in test [8], inactive: -0.044; in [9], inactive: 0; in test [10], inactive: 0.207; in test [11], inactive: -0.028; in test [12] it was inactive: -0.112. The log2 fold change in test [13] is inactive: 0.044; in [14], inactive: 0.036; in test [15], inactive: -0.44; in test [16] it was inactive: 0.097; in test [17] it was inactive: -0.02; in test [18], inactive: 0.034.
In the case of ERCC6 (UniProt Q03468), the log2 fold change is inactive: -0.067 in test [1]; inactive: -0.268 in [2]; inactive: 0.102 in test [3]; inactive: -0.14 in [4]; inactive: 0.102 in test [5]; inactive: -0.002 in test [6]. The log2 fold change in test [7] was inactive: 0.026; in test [8], inactive: -0.042; in [9] it was inactive: 0.077; in [10] it was inactive: -0.04; in [11] it was inactive: -0.12; in test [12] it was inactive: 0.061. In addition, the log2 fold change in test [13] was inactive: 0.011; in [14] it was inactive: -0.127; in test [15], inactive: 0.017; in test [16] it was inactive: -0.103; in test [17], inactive: 0.053; in test [18] it was inactive: 0.152.
As for FAM160B1 (UniProt Q5W0V3), the log2 fold change was inactive: 0.026 in [1]; inactive: -0.145 in test [2]; inactive: 0.004 in [3]; inactive: -0.053 in test [4]; inactive: -0.096 in test [5]; inactive: -0.092 in [6]. Moreover, the log2 fold change in test [7] was inactive: 0.047; in [8], inactive: -0.027; in [9], inactive: 0.009; in test [10], inactive: -0.009; in test [11], inactive: 0.015; in test [12], inactive: -0.119. For the same target, the log2 fold change in test [13] was inactive: 0.06; in [14], inactive: -0.003; in test [15], inactive: -0.217; in test [16] it was inactive: 0.049; in test [17], inactive: -0.018; in [18], inactive: -0.125.
As to EZH2 isoform 2 (UniProt Q15910), the log2 fold change was inactive: -0.105 in test [1]; inactive: -0.113 in test [2]; inactive: -0.073 in [3]; inactive: 0.073 in test [4]; inactive: -0.209 in [5]; inactive: -0.129 in [6]. Besides, the log2 fold change in test [8] is inactive: -0.144; in [9], inactive: 0.112; in test [11], inactive: -0.012; in test [12], inactive: -0.196; in test [13] it was inactive: -0.039; in test [14], inactive: 0.072. The log2 fold change in test [16] was inactive: 0.279; in test [17], inactive: 0.095.
Consider FAM174A (UniProt Q8TBP5), for which the log2 fold change is inactive: -0.004 in [1], inactive: -0.165 in [12], inactive: -0.065 in [19] and inactive: 0.027 in test [17].
For the target EVPL (UniProt Q92817), the log2 fold change was inactive: 0.151 in [2]; inactive: 0 in test [5]; inactive: 0.118 in test [7]; inactive: 0.219 in test [8]; inactive: 0.463 in [10]; inactive: -0.015 in test [11]. Besides, the log2 fold change in [15] was inactive: 0.431; in test [18] it was inactive: -0.181.
Take ERI1 (UniProt Q8IV48): the log2 fold change was inactive: -0.084 in test [1]; inactive: 0.071 in [3]; inactive: -0.114 in test [5]; inactive: -0.275 in test [8]; inactive: -0.06 in [10]; inactive: 0.118 in test [12]. For the same target, the log2 fold change in [13] is inactive: 0.023; in test [14], inactive: 0.481; in test [20], inactive: -0.216; in [15], inactive: 0.123; in test [19], inactive: -0.107; in [16], inactive: 0.046. Besides, the log2 fold change is inactive: 0.225 in test [17] and inactive: -0.375 in test [18].
As for FAM135A (UniProt Q9P2D6), the log2 fold change in test [2] was inactive: 0.13; in test [7], inactive: 0.052; in test [11], inactive: 0.087; in test [13], inactive: 0.038.
As for EXD2 (UniProt Q9NVH0), the log2 fold change was inactive: 0.014 in test [1]; inactive: -0.054 in test [2]; inactive: -0.173 in [3]; inactive: 0.263 in test [6]; inactive: 0.088 in test [9]; inactive: 0.071 in [11]. The log2 fold change is inactive: -0.031 in [12]; inactive: 0.023 in [13]; inactive: 0.51 in [14]; inactive: 0.122 in [17]; inactive: -0.289 in test [18].
Consider ERH (UniProt P84090), for which the log2 fold change in test [1] was inactive: -0.018; in test [3] it was inactive: 0.019; in [4], inactive: 0.141; in test [5], inactive: 0.18; in [6], inactive: -0.284; in [7], inactive: 0.029. Moreover, the log2 fold change in [8] is inactive: 0.037; in test [9], inactive: -0.007; in test [10], inactive: 0.025; in [12], inactive: 0.181; in test [13], inactive: 0.137; in [14], inactive: -0.306. Besides, the log2 fold change in test [20] was inactive: 0.006; in test [15], inactive: 0.16; in test [19], inactive: 0.044; in test [16] it was inactive: -0.068; in [17], inactive: 0.075; in [18], inactive: 0.175.
